Laboratory results published in paper PMC5996148.
The other results are listed elsewhere or left out. For some assays here: Construct or isoform of the protein are uncertain.

Sequences of proteins named here, by UniProt entry; tags and fusion partners are left off. A change or cut given only in a name is not applied to a line headed by its entry.
UniProt Q13601: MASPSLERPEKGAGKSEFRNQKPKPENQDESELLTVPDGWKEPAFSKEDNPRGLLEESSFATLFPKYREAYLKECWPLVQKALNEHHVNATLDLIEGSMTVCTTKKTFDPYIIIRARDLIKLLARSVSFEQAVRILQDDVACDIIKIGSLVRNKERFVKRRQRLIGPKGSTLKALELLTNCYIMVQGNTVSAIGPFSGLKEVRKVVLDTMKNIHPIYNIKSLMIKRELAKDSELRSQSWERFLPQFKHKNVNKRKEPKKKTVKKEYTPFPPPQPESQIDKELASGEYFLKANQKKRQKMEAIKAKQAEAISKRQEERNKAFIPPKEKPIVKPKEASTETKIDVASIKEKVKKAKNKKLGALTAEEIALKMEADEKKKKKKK
UniProt P11047: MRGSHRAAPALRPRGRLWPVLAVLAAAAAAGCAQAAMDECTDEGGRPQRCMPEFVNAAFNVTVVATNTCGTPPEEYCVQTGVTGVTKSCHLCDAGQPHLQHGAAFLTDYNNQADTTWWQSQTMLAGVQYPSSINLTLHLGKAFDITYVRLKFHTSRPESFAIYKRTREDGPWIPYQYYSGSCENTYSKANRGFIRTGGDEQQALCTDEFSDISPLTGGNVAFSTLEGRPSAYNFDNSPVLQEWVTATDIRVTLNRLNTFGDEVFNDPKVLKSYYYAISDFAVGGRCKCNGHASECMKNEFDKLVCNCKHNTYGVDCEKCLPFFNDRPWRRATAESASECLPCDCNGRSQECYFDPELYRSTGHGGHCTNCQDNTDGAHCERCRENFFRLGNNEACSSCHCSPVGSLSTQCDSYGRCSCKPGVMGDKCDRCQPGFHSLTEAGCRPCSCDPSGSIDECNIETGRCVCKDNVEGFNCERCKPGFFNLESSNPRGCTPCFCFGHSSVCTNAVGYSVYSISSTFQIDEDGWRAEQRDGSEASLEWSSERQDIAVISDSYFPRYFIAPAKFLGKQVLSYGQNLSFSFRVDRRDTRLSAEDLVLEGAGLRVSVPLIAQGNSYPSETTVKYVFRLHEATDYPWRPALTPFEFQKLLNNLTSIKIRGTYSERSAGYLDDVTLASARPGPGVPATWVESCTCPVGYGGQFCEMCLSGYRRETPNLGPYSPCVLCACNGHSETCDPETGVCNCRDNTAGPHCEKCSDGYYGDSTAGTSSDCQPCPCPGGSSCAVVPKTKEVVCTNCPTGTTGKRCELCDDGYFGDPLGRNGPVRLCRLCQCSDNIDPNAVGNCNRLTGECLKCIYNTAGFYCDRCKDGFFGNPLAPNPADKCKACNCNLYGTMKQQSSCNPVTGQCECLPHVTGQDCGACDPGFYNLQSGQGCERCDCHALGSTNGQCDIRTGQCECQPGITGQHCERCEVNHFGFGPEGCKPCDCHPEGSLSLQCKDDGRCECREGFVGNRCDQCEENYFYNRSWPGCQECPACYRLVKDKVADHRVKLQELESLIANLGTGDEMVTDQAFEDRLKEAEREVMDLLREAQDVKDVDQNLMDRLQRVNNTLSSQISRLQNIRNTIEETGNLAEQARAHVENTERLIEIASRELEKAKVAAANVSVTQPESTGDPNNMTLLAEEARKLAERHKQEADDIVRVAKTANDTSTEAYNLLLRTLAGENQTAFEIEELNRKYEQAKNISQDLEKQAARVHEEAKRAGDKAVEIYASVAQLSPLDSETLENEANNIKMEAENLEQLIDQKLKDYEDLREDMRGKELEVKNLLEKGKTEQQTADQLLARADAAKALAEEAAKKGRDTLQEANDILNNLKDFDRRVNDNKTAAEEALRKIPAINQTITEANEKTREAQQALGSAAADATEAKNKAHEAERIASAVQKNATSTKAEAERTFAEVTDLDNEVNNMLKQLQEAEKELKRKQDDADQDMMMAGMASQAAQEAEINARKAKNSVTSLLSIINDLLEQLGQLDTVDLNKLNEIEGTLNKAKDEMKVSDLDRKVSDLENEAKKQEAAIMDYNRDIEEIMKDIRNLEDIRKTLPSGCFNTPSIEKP

Experiments:
Experiment in all cases: protein microarray (ProtoArray v5.0), streptavidin-Alexa Fluor 647
Settings in all cases: 3'-biotin; 20 mM Tris (pH 7.5), 5 mM MgCl2, 100 mM KCl, 0.1% Tween-20, A/T-rich and random oligonucleotide blockers; temperature not stated; high values mean tight binding
KLHL20 (human) = tested on: KLHL20 (human)
KLHL32 (human) = tested on: KLHL32 (human)
KLK1 (human) = tested on: KLK1 (human)
KLK7 (human) = tested on: KLK7 (human)
KLK9 (human) = tested on: KLK9 (human)
[1] = tested on: KN motif and ankyrin repeat domain-containing protein 4 (human)
KRAS (human) = tested on: KRAS (human)
KRR1 = KRR1 (UniProt Q13601)
KRT8 (human) = tested on: KRT8 (human)
[2] = tested on: Kelch-like ECH-associated protein 1 (human)
[3] = tested on: Keratinocyte growth factor (human)
[4] = tested on: Kinesin light chain 3 (human)
[5] = tested on: Kinesin-like protein KIF26B (human)
LACTB2 (human) = tested on: LACTB2 (human)
LAMC1 = LAMC1 (UniProt P11047)
LARP1 = LARP1 (UniProt Q6PKG0)
LARP7 = molecular target: T1, LARP7 (UniProt Q4G0J3)
T1 sequence: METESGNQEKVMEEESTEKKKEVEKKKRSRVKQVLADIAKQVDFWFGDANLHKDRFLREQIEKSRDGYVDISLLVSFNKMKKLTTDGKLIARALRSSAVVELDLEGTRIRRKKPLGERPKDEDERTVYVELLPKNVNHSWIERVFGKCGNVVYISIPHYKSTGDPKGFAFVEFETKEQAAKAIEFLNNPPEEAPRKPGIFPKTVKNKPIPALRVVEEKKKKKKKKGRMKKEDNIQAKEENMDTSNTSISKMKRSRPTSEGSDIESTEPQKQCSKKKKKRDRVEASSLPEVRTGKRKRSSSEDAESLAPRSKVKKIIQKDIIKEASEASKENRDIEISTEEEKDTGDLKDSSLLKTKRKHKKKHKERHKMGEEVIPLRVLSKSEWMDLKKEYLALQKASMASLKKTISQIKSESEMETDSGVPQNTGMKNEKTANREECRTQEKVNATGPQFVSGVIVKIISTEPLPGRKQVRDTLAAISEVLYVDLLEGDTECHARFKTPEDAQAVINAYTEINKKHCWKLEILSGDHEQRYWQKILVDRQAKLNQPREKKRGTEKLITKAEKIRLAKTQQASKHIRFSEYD

LAS1L (human) = tested on: LAS1L (human)
LCN1 (human) = tested on: LCN1 (human)
LCP1 (human) = tested on: LCP1 (human)

GGGGACAGGGGTATGGGGAGGGG [G4-3 biotinylated (CtG)]
binding signal (KLHL20 (human)): -0.326 z-score | binding signal (KLHL32 (human)): -0.342 z-score | binding signal (KLK1 (human)): -0.317 z-score | binding signal (KLK7 (human)): -0.312 z-score | binding signal (KLK9 (human)): -0.321 z-score | binding signal [1]: -0.337 z-score | binding signal (KRAS (human)): -0.324 z-score | binding signal (KRR1): 6.33 z-score | binding signal (KRT8 (human)): -0.334 z-score | binding signal [2]: -0.327 z-score | binding signal [3]: -0.331 z-score | binding signal [4]: -0.337 z-score | binding signal [5]: -0.31 z-score | binding signal (LACTB2 (human)): -0.336 z-score | binding signal (LAMC1): 3.93 z-score | binding signal (LARP1): 4.71 z-score | binding signal (LARP7): 3.04 z-score | binding signal (LAS1L (human)): -0.322 z-score | binding signal (LCN1 (human)): -0.336 z-score | binding signal (LCP1 (human)): -0.319 z-score
